From paper PMC7279049
No constants are given. Whether binding was seen depends on the method and setting. Binding seen in cells or lysates may run through a third protein. Some entries that bind do so weakly or less than the wild type.

The chains behind the UniProt entries cited, without tags or fusion partners. Residues count along the entry.
UniProt P01009, residues 25-418: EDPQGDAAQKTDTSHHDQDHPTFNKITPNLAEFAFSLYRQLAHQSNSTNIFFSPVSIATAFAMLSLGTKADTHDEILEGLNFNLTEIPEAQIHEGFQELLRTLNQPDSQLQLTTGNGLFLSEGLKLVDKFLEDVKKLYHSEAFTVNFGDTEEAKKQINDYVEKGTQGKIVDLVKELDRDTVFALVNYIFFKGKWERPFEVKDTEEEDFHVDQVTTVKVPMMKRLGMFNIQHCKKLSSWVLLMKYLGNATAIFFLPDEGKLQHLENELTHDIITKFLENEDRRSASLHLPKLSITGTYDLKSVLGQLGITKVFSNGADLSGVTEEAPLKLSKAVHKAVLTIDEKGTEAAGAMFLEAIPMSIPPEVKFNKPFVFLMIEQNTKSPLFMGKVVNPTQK

B1: ER-degradation enhancing α-mannosidase-like (EDEM1) (protein, UniProt Q92611 1-657)
chain: MQWRALVLGLVLLRLGLHGVLWLVFGLGPSMGFYQRFPLSFGFQRLRSPDGPASPTSGPVGRPGGVSGPSWLQPPGTGAAQSPRKAPRRPGPGMCGPANWGYVLGGRGRGPDEYEKRYSGAFPPQLRAQMRDLARGMFVFGYDNYMAHAFPQDELNPIHCRGRGPDRGDPSNLNINDVLGNYSLTLVDALDTLAIMGNSSEFQKAVKLVINTVSFDKDSTVQVFEATIRVLGSLLSAHRIITDSKQPFGDMTIKDYDNELLYMAHDLAVRLLPAFENTKTGIPYPRVNLKTGVPPDTNNETCTAGAGSLLVEFGILSRLLGDSTFEWVARRAVKALWNLRSNDTGLLGNVVNIQTGHWVGKQSGLGAGLDSFYEYLLKSYILFGEKEDLEMFNAAYQSIQNYLRRGREACNEGEGDPPLYVNVNMFSGQLMNTWIDSLQAFFPGLQVLIGDVEDAICLHAFYYAIWKRYGALPERYNWQLQAPDVLFYPLRPELVESTYLLYQATKNPFYLHVGMDILQSLEKYTKVKCGYATLHHVIDKSTEDRMESFFLSETCKYLYLLFDEDNPVHKSGTRYMFTTEGHIVSVDEHLRELPWKEFFSEEGGQDQGGKSVHRPKPHELKVINSSSNCNRVPDERRYSLPLKSIYMRQIDQMVGLI
B2: XTP3-B (ERLEC1) (protein, UniProt Q96DZ1 34-483)
chain: LPQLSDDIPFRVNWPGTEFSLPTTGVLYKEDNYVIMTTAHKEKYKCILPLVTSGDEEEEKDYKGPNPRELLEPLFKQSSCSYRIESYWTYEVCHGKHIRQYHEEKETGQKINIHEYYLGNMLAKNLLFEKEREAEEKEKSNEIPTKNIEGQMTPYYPVGMGNGTPCSLKQNRPRSSTVMYICHPESKHEILSVAEVTTCEYEVVILTPLLCSHPKYRFRASPVNDIFCQSLPGSPFKPLTLRQLEQQEEILRVPFRRNKEEDLQSTKEERFPAIHKSIAIGSQPVLTVGTTHISKLTDDQLIKEFLSGSYCFRGGVGWWKYEFCYGKHVHQYHEDKDSGKTSVVVGTWNQEEHIEWAKKNTARAYHLQDDGTQTVRMVSHFYGNGDICDITDKPRQVTVKLKCKESDSPHAVTVYMLEPHSCQYILGVESPVICKILDTADENGLLSLPN

Key:
α1-antitrypsin (α-1AT) [1] = molecular target: α1-antitrypsin (α-1AT) (UniProt P01009); assay: co-IP; HEK293T co-expressing empty vector, EDEM1 or ∆-EDEM1 with an ERAD substrate, lysed in CHAPS buffer; immunoprecipitation with antibodies for EDEM1 or for the substrate, Western blot for the co-precipitated protein (Figure 2G-J)
α1-antitrypsin (α-1AT) [2] = molecular target: α1-antitrypsin (α-1AT) (UniProt P01009); assay: co-IP; HEK293T co-expressing empty vector, EDEM1 or ∆-EDEM1 with α-1AT or NHK, labelled with 35S-Met/Cys for 20 min, lysed in CHAPS buffer; immunoprecipitation with antibodies for α-1AT or EDEM1, SDS-PAGE, autoradiography (Figure A1E)
[3] = molecular target: T1, ER-degradation enhancing α-mannosidase-like (EDEM1) (UniProt Q92611); assay: co-IP; HEK293T overexpressing empty vector, EDEM1 or ∆-EDEM1, with or without 30 µM kifunensine overnight; CHAPS buffer; immunoprecipitation with antibodies for EDEM1, SEL1L, OS-9 or XTP3-B, Western blot for EDEM1, SEL1L, OS-9 and XTP3-B (Figure 3B-E; control siRNA samples of Figure A1J)
T1 sequence: B1 chain

Row | Binder | binding (α1-antitrypsin (α-1AT) [1]) | binding (α1-antitrypsin (α-1AT) [2]) | binding [3]
1 | B1 | binds | binds | 
2 | B2 |  |  | binds
